This test addresses insulin-like growth factor 1 receptor (IGF-1R) (human (endogenous in PDLSCs)). Briefly: co-IP; PDLSC lysate after 7 days of osteogenic induction in 5.5 mmol/L (normal) or 25 mmol/L (high) glucose; IP with rabbit anti-IGF-1R on protein A/G magnetic beads (Pierce kit), blot with anti-SNAI2.

These are yes or no findings as the source states them, for the method shown. In cells and extracts the contact can be indirect. Binding calls can cover weak binding; strength is not graded here.

B1: Snail Family Transcriptional Repressor 2 (SNAI2) (protein, UniProt O43623 1-268)
chain: MPRSFLVKKHFNASKKPNYSELDTHTVIISPYLYESYSMPVIPQPEILSSGAYSPITVWTTAAPFHAQLPNGLSPLSGYSSSLGRVSPPPPSDTSSKDHSGSESPISDEEERLQSKLSDPHAIEAEKFQCNLCNKTYSTFSGLAKHKQLHCDAQSRKSFSCKYCDKEYVSLGALKMHIRTHTLPCVCKICGKAFSRPWLLQGHIRTHTGEKPFSCPHCNRAFADRSNLRAHLQTHSDVKKYQCKNCSKTFSRMSLLHKHEESGCCVAH
As to B1, the binding result was “binds”.

Values taken from PMC8522165.
